Experimental findings from article PMC7769281, “The plasticity of the pyruvate dehydrogenase complex confers a labile structure that is associated with its catalytic activity” (PLoS ONE, 2020) are described below.

These are yes or no findings as the source states them, for the method shown. Binding seen in cells or lysates may run through a third protein. A yes stands for co-enrichment or nearness to the bait. Other partners may have been found. Where a sequence is shown, tags or fusion partners need not be part of it.

For this test, the target named is T1, yeast PDC E3, Lpd1-5xFLAG (S. cerevisiae), P09624.
T1 chain: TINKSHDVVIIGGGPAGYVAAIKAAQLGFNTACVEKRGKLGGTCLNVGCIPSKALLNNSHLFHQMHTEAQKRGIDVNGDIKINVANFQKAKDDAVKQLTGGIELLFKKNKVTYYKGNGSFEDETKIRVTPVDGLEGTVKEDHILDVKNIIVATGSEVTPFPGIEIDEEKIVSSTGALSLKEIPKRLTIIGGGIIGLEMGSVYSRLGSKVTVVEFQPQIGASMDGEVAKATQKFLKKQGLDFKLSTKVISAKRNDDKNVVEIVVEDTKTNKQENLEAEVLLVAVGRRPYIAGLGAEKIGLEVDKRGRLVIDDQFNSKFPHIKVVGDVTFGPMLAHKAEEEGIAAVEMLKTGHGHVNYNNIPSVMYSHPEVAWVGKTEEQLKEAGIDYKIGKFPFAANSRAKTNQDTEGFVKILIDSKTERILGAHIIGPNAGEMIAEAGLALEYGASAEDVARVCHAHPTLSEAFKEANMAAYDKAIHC
The test can be described thus: affinity purification with mass spectrometry; FLAG affinity purification (anti-FLAG M2 agarose, 4°C, 3xFLAG peptide elution) of E1pβ-5xFLAG or E3-5xFLAG from yeast cell extracts; MudPIT. The following applies: remark: other sources report otherwise.

B1: yeast PDC E1p α subunit (untagged, endogenous), P16387 34-420 (protein)
chain: ATLKTTDKKAPEDIEGSDTVQIELPESSFESYMLEPPDLSYETSKATLLQMYKDMVIIRRMEMACDALYKAKKIRGFCHLSVGQEAIAVGIENAITKLDSIITSYRCHGFTFMRGASVKAVLAELMGRRAGVSYGKGGSMHLYAPGFYGGNGIVGAQVPLGAGLAFAHQYKNEDACSFTLYGDGASNQGQVFESFNMAKLWNLPVVFCCENNKYGMGTAASRSSAMTEYFKRGQYIPGLKVNGMDILAVYQASKFAKDWCLSGKGPLVLEYETYRYGGHSMSDPGTTYRTRDEIQHMRSKNDPIAGLKMHLIDLGIATEAEVKAYDKSARKYVDEQVELADAAPPPEAKLSILFEDVYVKGTETPTLRGRIPEDTWDFKKQGFASRD
Regarding B1, the binding entry is listed as “binds”.
